This note sets out measurements from US6921641.

Results are given in words; binding and its absence hold for the method and conditions named. Some results given as binding are weak or reduced against the parent protein; the word gives no strength.

Test [1] has as its target Bacillus caldotenax (Bca) UvrA protein (Bacillus caldotenax). As to the kind of experiment: ATPase activity of UvrA + Δβh UvrB, with the gel mobility shift results.
For test [2] the target is unchanged. As to the kind of experiment: gel mobility shift; slower band taken as the UvrA2 Δβh UvrB-DNA complex; competition with wt UvrB on F26-50 dsDNA, 55° C.

B1: β-hairpin deletion mutant of the B. caldotenax UvrB protein (Δβh UvrB) (protein)
chain: VEGRFQLVAPYEPQGDQPQAIAKLVDGLRRGVKHQTLLGATGTGKTFTISNVIAQVNKPTLVIAHNKTLAGQLYSELKEFFPHNAVEYFVSYYDYYGAKINDEIDKLRHSATSALFERRDVIIVASVSCIYGLGSPEEYRELVVSLRVGMEIERNALLRRLVDIQYDRNDIDFRRGTFRVRGDVVEIFPASRDEHCIRVEFFGDEIERIREVDALTGEVLGEREHVAIFPASHFVTREEKMRLAIQNIEQELEERLAELRAQGKLLEAQRLEQRTRYDLEMMREMGFCSGIENYSRHLALRPPGSTPYTLLDYFPDDFLIIVDESHVTLPQLRGMYNGDRARKQVLVDHGFRLPSALDNRPLTFEEFEQKINQIIYVSATPGPYELEHSPGVVEQIIRPTGLLDPTIDVRPTKGQIDDLIGEIRERVERNERTLVTTLTKKMAEDLTDYLKEAGIKVAYLHSEIKTLERIEIIRDLRLGKYDVLVGINLLREGLDIPEVSLVAILDADKEGFLRSERSLIQTIGRAARNANGHVIMYADTITKSMEIAIQETKRRRAIQEEYNRKHGIVPRTVKKEIRDVIRATYAAEETEMYEAKPAAAMTKQEREELIRTLEAEMKEAAKALDFERAAQLRDIIFELKAEG
As for B1, the binding result in test [1] and in test [2] was “binds” in each case.
